Test results reported in patent publication US6013768A, “Kainate-binding human CNS receptors of the EAA1 family” (priority 1997, dated 2000).
At least one structure is not confirmed: it was looked up by name or label, or the drawing left a doubt.

What was measured:
[1] = target: T1, human EAA1a receptor (Homo sapiens, UniProt Q16099); assay: AMPA-binding assay, membranes of EAA1a-producing COS cells; details: EAA1a-producing COS cell membranes; 3H-AMPA 5 nM with 0.1M KSCN and 2.5 mM CaCl2
T1 construct: expressed in transfected cells; host or cells: COS-1 (ATCC CRL 1650), transient expression, plasmid pcDNA1/humEAA1a
T1 sequence (Q16099 21-956): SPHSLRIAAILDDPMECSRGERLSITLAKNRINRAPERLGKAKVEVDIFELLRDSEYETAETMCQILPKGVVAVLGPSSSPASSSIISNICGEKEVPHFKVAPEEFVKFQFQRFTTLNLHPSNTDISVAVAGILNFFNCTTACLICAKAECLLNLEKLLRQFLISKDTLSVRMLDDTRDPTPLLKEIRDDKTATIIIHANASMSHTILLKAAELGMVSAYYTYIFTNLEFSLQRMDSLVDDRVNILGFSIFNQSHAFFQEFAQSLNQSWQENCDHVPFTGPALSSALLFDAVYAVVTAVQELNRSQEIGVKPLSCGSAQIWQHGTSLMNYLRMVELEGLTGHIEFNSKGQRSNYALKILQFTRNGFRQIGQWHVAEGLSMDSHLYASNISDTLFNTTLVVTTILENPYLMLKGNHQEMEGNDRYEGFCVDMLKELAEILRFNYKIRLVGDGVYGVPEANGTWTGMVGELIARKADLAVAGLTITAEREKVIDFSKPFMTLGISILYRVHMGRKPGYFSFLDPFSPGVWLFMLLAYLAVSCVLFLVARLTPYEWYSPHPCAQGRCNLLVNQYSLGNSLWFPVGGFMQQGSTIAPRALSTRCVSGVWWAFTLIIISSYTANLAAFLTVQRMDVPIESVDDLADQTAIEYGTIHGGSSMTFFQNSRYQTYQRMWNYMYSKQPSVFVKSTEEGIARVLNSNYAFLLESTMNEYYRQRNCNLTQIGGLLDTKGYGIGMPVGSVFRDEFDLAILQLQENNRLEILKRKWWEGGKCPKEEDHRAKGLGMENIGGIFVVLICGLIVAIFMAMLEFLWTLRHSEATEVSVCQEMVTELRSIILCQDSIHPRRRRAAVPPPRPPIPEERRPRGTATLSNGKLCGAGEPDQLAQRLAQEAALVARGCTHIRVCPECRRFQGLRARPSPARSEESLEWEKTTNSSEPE

[2] = target: T1, human EAA1a receptor; assay: glutamate binding assay, membranes of EAA1a-producing COS cells; details: [3H]-glutamate 10 nM labelled ligand; COS cell membranes; non-specific binding with 1 mM L-glutamate; FIG. 5

## Cc1onc(O)c1CC(N)C(=O)O (stereo not drawn) [AMPA, alpha-amino-3-hydroxy-5-methyl-isoxazole-4-propionate]
[1]
  binding of AMPA: little or no demonstrable binding

## N[C@@H](CCC(=O)O)C(=O)O [glutamate, L-glutamate]
[2]
  specific binding of labelled glutamate: [3H]-glutamate binding
